From article PMC7994846
No constants are given. Whether binding was seen depends on the method and setting. Binding seen in cells or lysates may run through a third protein. Some binding calls cover weakened binding; strength is not graded here.

Chains of the proteins cited; added tags and fusions are not shown.
UniProt Q02248: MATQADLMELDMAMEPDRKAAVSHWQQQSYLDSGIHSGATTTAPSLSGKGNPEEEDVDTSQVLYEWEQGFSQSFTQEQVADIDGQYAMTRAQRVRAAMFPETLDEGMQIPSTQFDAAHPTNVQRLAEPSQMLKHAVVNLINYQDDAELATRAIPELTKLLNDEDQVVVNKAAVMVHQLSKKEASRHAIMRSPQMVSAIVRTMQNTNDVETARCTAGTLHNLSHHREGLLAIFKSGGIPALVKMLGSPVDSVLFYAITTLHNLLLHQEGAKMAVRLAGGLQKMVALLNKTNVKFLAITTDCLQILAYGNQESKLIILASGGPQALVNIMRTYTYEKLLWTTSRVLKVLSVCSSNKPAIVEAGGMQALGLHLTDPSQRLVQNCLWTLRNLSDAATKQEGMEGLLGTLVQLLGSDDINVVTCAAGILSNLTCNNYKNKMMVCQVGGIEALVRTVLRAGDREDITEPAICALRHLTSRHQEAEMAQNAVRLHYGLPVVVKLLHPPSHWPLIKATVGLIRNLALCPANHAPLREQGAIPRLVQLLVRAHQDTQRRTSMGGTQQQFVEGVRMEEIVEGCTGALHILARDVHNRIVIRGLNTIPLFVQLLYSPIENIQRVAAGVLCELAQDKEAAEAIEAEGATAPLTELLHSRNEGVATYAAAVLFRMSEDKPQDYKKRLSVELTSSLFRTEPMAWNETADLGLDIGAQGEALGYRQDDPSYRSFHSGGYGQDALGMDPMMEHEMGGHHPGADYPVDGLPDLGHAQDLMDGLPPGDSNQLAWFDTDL
UniProt P47811: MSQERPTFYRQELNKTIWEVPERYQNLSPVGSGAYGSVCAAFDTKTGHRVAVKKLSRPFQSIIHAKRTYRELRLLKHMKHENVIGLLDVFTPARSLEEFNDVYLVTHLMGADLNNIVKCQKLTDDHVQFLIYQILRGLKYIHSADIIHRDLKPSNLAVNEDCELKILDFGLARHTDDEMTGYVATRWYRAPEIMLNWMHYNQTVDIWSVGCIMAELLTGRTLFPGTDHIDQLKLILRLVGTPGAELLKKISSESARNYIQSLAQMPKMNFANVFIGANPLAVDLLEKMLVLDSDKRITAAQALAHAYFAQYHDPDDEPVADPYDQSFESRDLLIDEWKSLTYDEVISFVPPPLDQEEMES

Molecular target: endogenous mouse β-catenin (mouse (endogenous in C57BL/6 and APC^Min/+ colon tissue)) (UniProt Q02248)
Assay: co-IP; endogenous proteins, nuclear and cytoplasmic fractions of C57BL/6 normal colon tissue and AOM-treated APC^Min/+ adenocarcinoma tissue; IgG as negative control

For “endogenous mouse p38α (from UniProt P47811 1-360) (enzyme)”, the binding was “binds”.
